Values quoted from earlier work, collected in patent US7238658B2 (Genentech, Inc., priority 2001, dated 2007).
At least one compound was matched to its structure with a doubt left.

Conditions: cited from earlier work

C[C@H](CCC(=O)N(CCCNC(=O)[C@H](O)[C@@H](O)[C@H](O)[C@H](O)CO)CCCNC(=O)[C@H](O)[C@@H](O)[C@H](O)[C@H](O)CO)[C@H]1CC[C@H]2[C@@H]3CC[C@@H]4C[C@H](O)CC[C@]4(C)[C@H]3C[C@H](O)[C@]12C
critical micelle concentration: 1.4 mM
